# Data reported in PubChem BioAssay AID2517 (National Center for Advancing Translational Sciences (NCATS), 2010).
# The chains behind the UniProt entries cited, without tags or fusion partners.
# UniProt P27695, whole entry, looked up: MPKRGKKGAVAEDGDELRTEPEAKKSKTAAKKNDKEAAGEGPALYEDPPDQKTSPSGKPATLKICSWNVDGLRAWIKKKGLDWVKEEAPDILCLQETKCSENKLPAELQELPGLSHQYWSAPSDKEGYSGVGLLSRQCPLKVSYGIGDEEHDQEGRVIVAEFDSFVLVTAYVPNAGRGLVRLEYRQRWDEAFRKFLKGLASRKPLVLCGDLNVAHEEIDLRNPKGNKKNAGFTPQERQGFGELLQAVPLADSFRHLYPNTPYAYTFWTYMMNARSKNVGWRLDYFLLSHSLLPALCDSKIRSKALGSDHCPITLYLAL
# Where “and” joins values, the source holds several entries; their conditions need not be identical. Identical values can stand only once. The campaign covered roughly 350,000 compounds. About 1,200 (0.34%) were called active. This list was built around the results that the source calls inconclusive (neither active nor inactive); the mix of calls is not that of the screen. The call rests on the fitted dose curve; in most records, active means well fitted inhibition curve with a large enough effect; inconclusive means small, poorly fitted or top-dose-only effect; inactive means no such curve, though single readings can be large or run the other way. Potencies beside an inconclusive call are fits to weak or partial responses and may not hold up. The source holds several records for some structures; these can differ, active in one and inactive in another.
# Biological target: DNA repair nuclease/redox regulator APEX1 (Homo sapiens) (UniProt P27695)
# Assay: qHTS Assay for Inhibitors of the Human Apurinic/apyrimidinic Endonuclease 1 (APE1); further: nearly all actives have a fitted effect of over 55% in size;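 on activity change, negative = inhibition: plate controls were vehicle for no effect and reference inhibitor for full effect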
# Settings: recombinant APE1, TAMRA/BHQ-2 abasic DNA cleavage fluorescence; activity change, negative = inhibition: at 65.8 µM (top of the series)
# In short: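 Substrate: short duplex with […] THF abasic site, 5'-TAMRA and 3'-BHQ-2, 50 nM final. APE1 at 0.75 nM, preincubated 15 min RT with compound. Fluorescence increase from first to third read measured activity.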
# Potency means the concentration at half of the fitted maximal effect.
SMILES,Potency,"activity change, negative = inhibition"
CC1=NN=C(c2ccc(N)cc2)c2cc3c(cc2C1)OCO3,"inconclusive: 33.6 µM [inhibitor, single point]",–
O=[N+]([O-])c1cc(Cl)c(O)c(-[n+]2c(-c3ccccc3)cc(-c3ccccc3)cc2-c2ccccc2)c1,–,inactive: -6.23%
CN(C)C(=O)Cl,–,inactive: 0.104%
C=C1C[C@]2(O)[C@@]3(C)CCC(=O)C(C)(C)C3=C(O)C(=O)[C@@]2(C)[C@@H]2C(=O)O[C@@](C)(C(=O)OC)C(=O)[C@@]12C,"inconclusive: 20 µM [inhibitor, partial curve]",–
Cc1cc(/C=C2\C(=O)NC(=O)N(c3ccc(Cl)cc3)C2=O)c(C)n1-c1sc2c(c1C#N)CCCC2,–,inactive: -5.02%
COc1ccc(S(=O)(=O)NCc2ccc(C(=O)N3CCC4(CC3)OCCO4)cc2)cc1,"inconclusive: 35.5 µM [inhibitor, single point]",–
CC(C)CCn1c(N)c(C(=O)OCC2CCCO2)c2nc3ccccc3nc21 (stereo unspecified),–,inactive: 0.361%
CC(C)[C@]1(NC(=O)[C@@H]2C=C3c4cccc5[nH]cc(c45)C[C@H]3N(C)C2)O[C@@]2(O)C3CCCN3C(=O)[C@H](Cc3ccccc3)N2C1=O (stereo partly specified),"inconclusive: 3.98 µM [inhibitor, partial curve, poor fit]",–
Cc1ccccc1-n1c(O)c(/C=N/NC(=O)c2ccncc2)c(=O)[nH]c1=O,–,inactive: -0.281%
CCN(CC)C(=O)c1ccc2c(c1)C1C=CCC1C(C(=O)O)N2 (stereo unspecified),–,inactive: 15.3%
O=P(N[C@@H](c1ccccc1)[C@@H]1C[C@H]1CO)(c1ccccc1)c1ccccc1,"inconclusive: 3.98 µM [inhibitor, single point]",–
CCN1C[C@@]2(COC)CCC(OC)[C@]34C5C[C@]6(O)[C@@H](OC)C[C@](OC(C)=O)(C([C@H](OC)C23)[C@H]14)C5[C@H]6OC(=O)c1ccc(OC)cc1 (stereo partly specified),–,inactive: -6.94%
CCCCC/C=C\C/C=C\C/C=C\C/C=C\CCCC(=O)OC(CO)CO,inactive,–
COc1cccc(N2C(=O)NC(=O)/C(=C\c3ccc([N+](=O)[O-])s3)C2=O)c1,"inconclusive: 39.8 µM [inhibitor, single point]",–
CC(N)C(O)c1ccc(O)c(O)c1 (stereo unspecified),active: 1.41 µM,–
CC(=O)NC1CCSC1=O (stereo unspecified),inactive,–
Nc1ccc(Cl)cc1C(=O)c1ccccc1,"inconclusive: 44.7 µM [inhibitor, partial curve, poor fit]",–
C=CCN1C(=O)/C(=C\c2ccc(N3CCOCC3)o2)C(=O)NC1=S,"inconclusive: 44.7 µM [inhibitor, single point]",–
CN(C)/C=C/C(=O)C(Cl)(Cl)Cl,"inconclusive: 12.6 µM [inhibitor, single point]",–
CN(C)[C@@H]1C(=O)C(C(N)=O)=C(O)[C@@]2(O)C(=O)C3=C(O)c4c(O)cccc4[C@@](C)(O)[C@H]3[C@H](O)[C@@H]12,active: 1.89 µM and active: 7.94 µM,–
Cc1cccc(N2C(=O)NC(=O)/C(=C/c3ccc(-c4ccc(C(=O)O)c(Cl)c4)o3)C2=O)c1,–,inactive: 4.65%

SMILES,Potency,"activity change, negative = inhibition"
CNc1ccc2oc(C[C@@H]3OC4(CC[C@@H]3C)O[C@H]([C@@H](C)C(=O)c3ccc[nH]3)[C@H](C)C[C@H]4C)nc2c1C(=O)O (stereo partly specified),"inconclusive: 39.8 µM [inhibitor, partial curve] and inconclusive: 25.1 µM [inhibitor, partial curve]",–
CN1CCc2cc3c(c4c2[C@H]1Cc1ccccc1-4)OCO3,"inconclusive: 7.08 µM [inhibitor, full curve]",–
CCCCn1c(=O)c(C(=O)NCc2ccco2)c(O)c2ccccc21,"inconclusive: 44.7 µM [inhibitor, single point]",–
O=P1(N(CCCl)CCCl)NCCCO1 (stereo unspecified),"inconclusive: 28.2 µM [inhibitor, single point]",–
Cc1nc(SCc2c(Cl)cccc2Cl)nc(OC(=O)N(C)C)c1C,"inconclusive: 3.16 µM [inhibitor, single point]",–
CCOC(=O)c1ncn2c1CN(C)C(=O)c1cc(N=[N+]=[N-])ccc1-2,"inconclusive: 20 µM [inhibitor, single point]",–
O=C(O)Cn1cc(/C=C2\C(=O)NC(=O)N(Cc3ccco3)C2=O)c2ccccc21,active: 7.94 µM,–
COc1ccccc1C1=NOC(COC(=O)c2ccc([N+](=O)[O-])cc2)C1 (stereo unspecified),"inconclusive: 3.55 µM [inhibitor, single point]",–
O=C(Cn1ncc2c3ccccc3n(Cc3ccccc3)c2c1=O)N1CCC2(CC1)OCCO2,"inconclusive: 0.0028 µM [inhibitor, full curve, poor fit]",–
CCCCCCn1c(O)c(/C=N/N2CCCCCC2)c(=O)[nH]c1=O,"inconclusive: 6.31 µM [inhibitor, single point]",–
O=c1[nH]c(=S)n(C2CC2)c(O)c1C=Nc1ccc2c(c1)OCO2,"inconclusive: 39.8 µM [inhibitor, single point]",–
Clc1ccc(C(c2ccc(Cl)cc2)n2cc[n+](CC(OCc3ccc(Cl)cc3Cl)c3ccc(Cl)cc3Cl)c2)cc1 (stereo unspecified),inactive,–
CC(C)(C)NC[C@@H](O)COc1cccc2[nH]c(C#N)cc12,"inconclusive: 28.2 µM [inhibitor, partial curve, poor fit]",–
OC[P+](CO)(CO)CO,–,inactive: 4.23%
CN1CC[C@@]2(C)c3cc(O)ccc3N(C)C2O1 (stereo partly specified),–,inactive: -4.61%
C=C1C/C(=C/C)C(=O)O[C@@H]2CCN3CC=C(COC(=O)[C@]1(C)O)[C@@H]23,"inconclusive: 35.5 µM [inhibitor, single point]",–
COc1ccc(CN2C(=O)NC(=O)/C(=C/c3ccc([N+](=O)[O-])o3)C2=O)cc1,"inconclusive: 22.4 µM [inhibitor, partial curve]",–
CCOC(=O)C1CCCN(c2ccc([N+](=O)[O-])c3nonc23)C1 (stereo unspecified),"inconclusive: 25.1 µM [inhibitor, partial curve]",–
CCN1C(=O)NC(=O)/C(=C\c2ccc(N3CCOCC3)cc2OC)C1=O,"inconclusive: 25.1 µM [inhibitor, partial curve, poor fit]",–
C=C(CC1(C(C)NP(=O)(c2ccccc2)c2ccccc2)CC1)c1ccccc1 (stereo unspecified),"inconclusive: 17.8 µM [inhibitor, partial curve]",–
